Results published in the supplement of paper PMC5662767.
Some of the results follow. Plates or batches differ in their baseline, so values are only roughly comparable.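 A clonal Drosophila S2 line expresses Smoothened bearing circularly permuted GFP in its cytoplasmic tail; Hh-driven phosphorylation opens an inhibitory loop, making it fluoresce. Flow cytometry measured per-cell fluorescence, normalized to Hh-stimulated untreated cells. Hits were inhibitor groups with shared pathway targets that consistently shifted fluorescence, not individual compounds.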

Tested on: Drosophila S2 cl14 SmoIP sensor cells
Assay: normalized SmoIP GFP fluorescence (untreated unstimulated = 0%, untreated Hh-stimulated = 100%); higher = more Smo activation sensor fluorescence
Conditions: stimulation: mock conditioned medium (-Hh); compound concentration: 15 uM; 24 h

SMILES | normalized SmoIP GFP fluorescence
CN1CC(=O)N2[C@H](c3ccc4c(c3)OCO4)c3[nH]c4ccccc4c3C[C@@H]2C1=O [Tadalafil(Cialis)] | 4.26%
CO[C@H]1C[C@@H]2CC[C@@H](C)[C@@](O)(O2)C(=O)C(=O)N2CCCC[C@H]2C(=O)O[C@H]([C@H](C)C[C@@H]2CC[C@@H](OCCO)[C@H](OC)C2)CC(=O)[C@H](C)/C=C(\C)[C@@H](O)[C@@H](OC)C(=O)[C@H](C)C[C@H](C)/C=C/C=C/C=C/1C [Everolimus(RAD001)] | 24.6%
CNC(=O)c1ccc(N2C(=S)N(c3cnc(C#N)c(C(F)(F)F)c3)C(=O)C23CCC3)cc1F | 6.67%
O=C(Nc1ccc(S(=O)(=O)Nc2ccccc2Cl)c(Cl)c1)c1ccccn1 | -5.17%
Cn1cc(-c2ccc3nnc(Sc4ccc5ncccc5c4)n3n2)cn1 | -1.13%
CCOc1cc([C@@H](CS(C)(=O)=O)N2C(=O)c3cccc(NC(C)=O)c3C2=O)ccc1OC | -11.2%
CCC[C@H](NC(=O)[C@@H]1[C@H]2CCC[C@H]2CN1C(=O)[C@@H](NC(=O)[C@@H](NC(=O)c1cnccn1)C1CCCCC1)C(C)(C)C)C(=O)C(=O)NC1CC1 [Telaprevir(VX-950)] | 14.5%
CC[C@H](NC(=O)[C@H](C)NC)C(=O)N1C[C@@H](O)C[C@H]1Cc1c(-c2[nH]c3cc(F)ccc3c2C[C@@H]2C[C@H](O)CN2C(=O)[C@H](CC)NC(=O)[C@H](C)NC)[nH]c2cc(F)ccc12 | 4.79%
C[C@@H]1CCN(C(=O)CC#N)C[C@@H]1N(C)c1ncnc2[nH]ccc12 | 0.815%
CC(C)C[C@H](NC(=O)[C@@H](NC(=O)c1cccc(-c2ccccc2)n1)[C@@H](C)O)B(O)O | 75.1%

Random excerpt: two entries already listed, in no set order.
SMILES | normalized SmoIP GFP fluorescence
CNC(=O)c1ccc(N2C(=S)N(c3cnc(C#N)c(C(F)(F)F)c3)C(=O)C23CCC3)cc1F | 6.67%
CO[C@H]1C[C@@H]2CC[C@@H](C)[C@@](O)(O2)C(=O)C(=O)N2CCCC[C@H]2C(=O)O[C@H]([C@H](C)C[C@@H]2CC[C@@H](OCCO)[C@H](OC)C2)CC(=O)[C@H](C)/C=C(\C)[C@@H](O)[C@@H](OC)C(=O)[C@H](C)C[C@H](C)/C=C/C=C/C=C/1C [Everolimus(RAD001)] | 24.6%
